Test results taken from patent publication US12285012B2, “Compositions comprising pyridine carboxylate herbicides with acetolactate synthase (ALS) inhibitor herbicides” (Corteva Agriscience LLC, priority 2018, dated 2025).
“And” between values parts separate entries of the source, which are not always exact repeats. Equal values may be shown once. The name of at least one read-out is uncertain.

Experiments:
[1] = tested on: kochia (KCHSC, Kochia scoparia); assay: Greenhouse postemergence herbicidal effect; type: in vivo
Procedure: Seeds of the desired test plant species were planted in a 90:10% v/v (volume/volume) mixture of PRO-MIX® BX (Premier Tech Horticulture, Quakertown, PA, USA) and PROFILE® GREENS GRADE™ (Profile Products LLC, Buffalo Grove, IL, USA) planting mixture, which typically has a pH of 5.2 to 6.2 and an organic matter content of at least 50 percent, in plastic pots with a surface area of 103.2 square centimeters (cm^2). […] The plants were grown for 7-36 days (d) in a greenhouse with an approximate 14-hour (h) photo-period which was maintained at about 23° C. during the day and 22° C. during the night. Nutrients and water were added on a regular basis and supplemental lighting was provided with overhead metal halide 1000-Watt lamps as necessary. The plants were employed for testing when they reached the second or third true leaf stage.
Emulsifiable concentrates of each of each pyridine carboxylate herbicide (Compound A or Compound B) were prepared at 100 grams acid equivalent per liter (g ae/L). […]
(§1) The treated plants and control plants were placed in a greenhouse as described above and watered by sub-irrigation to prevent wash-off of the test compounds. After 20-22 d, the condition of the test plants as compared with that of the control plants was determined visually and scored on a scale of 0 to 100 percent where 0 corresponds to no injury and 100 corresponds to complete kill.

[2] = tested on: Canadian thistle (CIRAR, Cirsium arvense); assay: Greenhouse postemergence herbicidal effect; type: in vivo; details: 10 g/ha
Procedure: The plants were grown for 7-36 days (d) in a greenhouse with an approximate 14-hour (h) photo-period which was maintained at about 23° C. during the day and 22° C. during the night. Nutrients and water were added on a regular basis and supplemental lighting was provided with overhead metal halide 1000-Watt lamps as necessary. The plants were employed for testing when they reached the second or third true leaf stage.
The emulsifiable concentrates also included a safener, cloquintocet-mexyl, at 120 grams active ingredient per liter (g ai/L), unless otherwise noted below.
Control plants were sprayed in the same manner with the solvent blank. All pyridine carboxylate herbicide (component a) application rates are given as “g ae/ha” and all ALS inhibitor (component b) application rates are given as “g ai/ha.”
as §1

Q: How did the “% visual injury, Obs” value ([1]; 10 g/ha) turn out when N#CCOC(=O)c1nc(-c2ccc3cc[nH]c3c2F)c(F)c(N)c1Cl [Compound A, cyanomethyl 4-amino-3-chloro-5-fluoro-6-(7-fluoro-1H-indol-6-yl)pyridine-2-carboxylate] was run?
A: 58% and 55% and 65% and 70%

Q: What about the “% visual injury, Obs” value ([1]; KCHSC, Compound A 10 g/ha) of the same compound?
A: 58%

Q: What about the “% visual injury, Obs” value [2] of the same compound?
A: 23% and 30%
